The entries are a selection whose mix differs from that of the whole data set.
The targets below were run with COC(=O)C#Cc1ccccc1 [methyl 3-phenylpropiolate] (assay: log2 ratio of iodoacetamide-alkyne labeling of the cysteine site, DMSO over compound (competition); higher = stronger covalent engagement of the cysteine by the compound, active = 1 or more). Details: 500 µM; treatment time 1 h; system: HEK293T cell lysate.
Procedure, shortened: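 The log2 competition ratio per cysteine is defined as mean reporter intensity in control channels over mean reporter intensity in compound channels. Lysate from HEK293T cells (2 mg/mL) received electrophile (500 µM) or vehicle for 1 h at ambient temperature, followed by iodoacetamide alkyne for 1 h. Samples were clicked to sCIP-TMT reagents, pooled, trypsin-digested overnight at 37 °C, streptavidin-enriched, acid-eluted and run on Orbitrap Eclipse LC-MS/MS with FAIMS, with quantification in FragPipe. Three replicates with duplicate channels were used, and any cysteine quantified in only one replicate was excluded.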
ADD1 C253 (UniProt P35611) was tested, and the “log2 ratio of iodoacetamide-alkyne labeling” value (from here on “log2 ratio”) was inactive: 0.101. For RPL4 C3 (UniProt P36578), the “log2 ratio” value was inactive: 0.647. With ATIC C363 (UniProt P31939) the “log2 ratio” value was inactive: 0.3. UQCRC1 C268 (UniProt P31930) was tested, and the “log2 ratio” value was inactive: 0.113. For STAT3 C259 (UniProt P40763), the “log2 ratio” value was inactive: 0.646. With MCM4 C162 (UniProt P33991) the “log2 ratio” value was inactive: 0.055. With MDH2 C93 (UniProt P40926) the “log2 ratio” value was inactive: 0.117. In the case of EIF2S3 C105 (UniProt P41091), the “log2 ratio” value is reported as inactive: 0.341. In the case of UniProt P31260_C200, the “log2 ratio” value is reported as inactive: 0.823. With PEBP1 C168 (UniProt P30086) the “log2 ratio” value was inactive: 0.0634. HNRNPH1 C122 (UniProt P31943) was tested, and the “log2 ratio” value was inactive: -0.00137. For RFC2 C171 (UniProt P35250), the “log2 ratio” value was inactive: 0.188. In the case of MYH9 C91 (UniProt P35579), the “log2 ratio” value is reported as inactive: -0.0505. In the case of MATR3 C806 (UniProt P43243), the “log2 ratio” value is reported as inactive: 0.0964. AGL C767 (UniProt P35573) was tested, and the “log2 ratio” value was inactive: 0.21. With DCTD C60 (UniProt P32321) the “log2 ratio” value was inactive: 0.37. With DUT C222 (UniProt P33316) the “log2 ratio” value was inactive: 0.016. With RPL3 C114 (UniProt P39023) the “log2 ratio” value was inactive: 0.0808. In the case of SERPINB6 C350 (UniProt P35237), the “log2 ratio” value is reported as inactive: 0.174. In the case of STIP1 C417 (UniProt P31948), the “log2 ratio” value is reported as inactive: -0.182. With MCM5 C221 (UniProt P33992) the “log2 ratio” value was inactive: 0.195. EIF1 C69 (UniProt P41567) was tested, and the “log2 ratio” value was inactive: 0.0567.
